# Laboratory results as given in PubChem BioAssay AID256 (DTP/NCI, 2004).
# The list is a part of this screen's results and no random one: it is rich in T/C values a quarter to a half above the control, in often repeated tests (any T/C) and in doses without a T/C. Other doses and runs of a compound stand elsewhere. T/C: endpoint of the treated group in % of that of the vehicle group. Some entries give survivors of the animals treated and no T/C: the source holds a T/C of zero for them, seemingly a mark for toxic or unscored doses. Some doses without a T/C left all or most animals alive at the check, yet need not have been tolerated: survival well below the control is almost never listed, so the zero probably covers shortened survival too. Counts of survivors are from the toxicity check (mostly the fifth day) where no day follows; animals may have died later. Schedule codes are those of the source, read here as Q, the interval in days (D) or hours (H), X, the number of doses. Where survival is the endpoint, this PubChem deposit counts one and a half times the control or more as active, and values a quarter to a half above the control carry no call in these data; other NCI protocols may use other cut-offs. Some doses were run more than once; their values stand side by side, smallest first. Some T/C values are followed by the survivors on the day toxicity was checked, most often the fifth; where none is given, no animal had died by that day.
# System: CD2F1 mice, L1210 leukemia ip, survival T/C
# Test: NCI In Vivo Anticancer Drug Screen. Data for tumor model L1210 Leukemia (intraperitoneal) in CD2F1 (CDF1) mice
# Details: T/C endpoint: mean survival time, higher T/C = longer survival
# How it was run: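 Read-out first: treated-group measurement over vehicle-control measurement, expressed as a ratio. Animals bore a transplanted tumor line and were dosed with compound or vehicle.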
smiles,measurement,setting,value
Nc1nc(=S)c2ncn(C3CC(O)C(CO)O3)c2[nH]1 (configuration not stated),T/C,"dose: 0.62 mg/kg/injection, schedule: Q01DX005 (ip), vehicle: saline",145 % of control
same,T/C,"dose: 0.62 mg/kg/injection, schedule: Q01DX009 (ip), vehicle: water",135 % of control
same,T/C,"dose: 0.62 mg/kg/injection, schedule: Q03HX008 (ip), vehicle: saline",139 % of control
same,T/C,"dose: 0.63 mg/kg/injection, schedule: Q01DX005 (ip), vehicle: saline with Tween-80",132 % of control
same,T/C,"dose: 1.25 mg/kg/injection, schedule: Q01DX005 (ip), vehicle: saline with Tween-80",140 % of control
same,T/C,"dose: 1.25 mg/kg/injection, schedule: Q01DX009 (ip), vehicle: water",145 % of control
same,T/C,"dose: 1.25 mg/kg/injection, schedule: Q03HX008 (ip), vehicle: saline",148 % of control
same,T/C,"dose: 2.5 mg/kg/injection, schedule: Q01DX005 (ip), vehicle: saline with Tween-80",147 % of control
same,T/C,"dose: 2.5 mg/kg/injection, schedule: Q01DX005 (ip), vehicle: saline",146 % of control
same,T/C,"dose: 2.5 mg/kg/injection, schedule: Q01DX005 (oral), vehicle: saline",149 % of control
same,T/C,"dose: 2.5 mg/kg/injection, schedule: Q01DX009 (ip), vehicle: water",137 % of control
same,T/C,"dose: 2.5 mg/kg/injection, schedule: Q03HX008 (ip), vehicle: saline",144 % of control
same,T/C,"dose: 4.0 mg/kg/injection, schedule: Q01DX005 (ip), vehicle: saline",127 % of control
same,T/C,"dose: 4.0 mg/kg/injection, schedule: Q01DX009 (ip), vehicle: saline",132 % of control
same,T/C,"dose: 5.0 mg/kg/injection, schedule: Q01DX001 (ip), vehicle: steroid suspending solution",129 % of control
same,T/C,"dose: 5.0 mg/kg/injection, schedule: Q01DX005 (ip), vehicle: saline",147 % of control
same,T/C,"dose: 5.0 mg/kg/injection, schedule: Q01DX009 (ip), vehicle: water",140 % of control
same,T/C,"dose: 5.0 mg/kg/injection, schedule: Q03HX008 (ip), vehicle: saline",146 % of control
same,T/C,"dose: 8.0 mg/kg/injection, schedule: Q01DX005 (ip), vehicle: saline",132 % of control
same,T/C,"dose: 10.0 mg/kg/injection, schedule: Q01DX001 (ip), vehicle: steroid suspending solution",134 % of control
same,T/C,"dose: 10.0 mg/kg/injection, schedule: Q01DX009 (ip), vehicle: water",127 % of control
same,T/C,"dose: 10.0 mg/kg/injection, schedule: Q03HX008 (ip), vehicle: saline",146 % of control
same,T/C,"dose: 10.0 mg/kg/injection, schedule: Q03HX024 (ip), vehicle: saline",133 % of control
same,T/C,"dose: 10.0 mg/kg/injection, schedule: Q04DX003 (ip), vehicle: saline",137 % of control
same,T/C,"dose: 10.0 mg/kg/injection, schedule: Q04DX003 (ip), vehicle: water",140 % of control
same,T/C,"dose: 12.0 mg/kg/injection, schedule: Q01DX009 (oral), vehicle: saline",126 % of control
same,T/C,"dose: 20.0 mg/kg/injection, schedule: Q01DX001 (ip), vehicle: saline",129 % of control
same,T/C,"dose: 20.0 mg/kg/injection, schedule: Q01DX001 (ip), vehicle: steroid suspending solution",139 % of control
same,survivor count,"dose: 20.0 mg/kg/injection, schedule: Q01DX005 (ip), vehicle: saline with Tween-80",7 of 7
same,T/C,"dose: 20.0 mg/kg/injection, schedule: Q01DX005 (ip), vehicle: saline",144 % of control
same,T/C,"dose: 20.0 mg/kg/injection, schedule: Q03HX008 (ip), vehicle: saline",143 % of control
same,T/C,"dose: 20.0 mg/kg/injection, schedule: Q03HX016 (ip), vehicle: saline",141 % of control
same,T/C,"dose: 20.0 mg/kg/injection, schedule: Q04DX003 (ip), vehicle: water",144 % of control
same,T/C,"dose: 20.0 mg/kg/injection, schedule: Q08DX002 (ip), vehicle: saline",132 % of control
same,T/C,"dose: 24.0 mg/kg/injection, schedule: Q01DX009 (oral), vehicle: saline",142 % of control
same,T/C,"dose: 36.0 mg/kg/injection, schedule: Q01DX009 (ip), vehicle: water",130 % of control
same,T/C,"dose: 40.0 mg/kg/injection, schedule: Q01DX001 (ip), vehicle: saline",132 and 147 % of control
same,T/C,"dose: 40.0 mg/kg/injection, schedule: Q01DX001 (sc), vehicle: saline",128 % of control
same,survivor count,"dose: 40.0 mg/kg/injection, schedule: Q01DX005 (ip), vehicle: saline with Tween-80",7 of 7
same,T/C,"dose: 40.0 mg/kg/injection, schedule: Q01DX005 (oral), vehicle: saline",142 % of control
same,T/C,"dose: 40.0 mg/kg/injection, schedule: Q04DX003 (ip), vehicle: water",140 % of control
same,T/C,"dose: 40.0 mg/kg/injection, schedule: Q08DX002 (ip), vehicle: saline",129 % of control
same,T/C,"dose: 48.0 mg/kg/injection, schedule: Q01DX009 (oral), vehicle: saline",137 % of control
same,T/C,"dose: 50.0 mg/kg/injection, schedule: Q01DX009 (ip), vehicle: water",141 % of control
same,T/C,"dose: 60.0 mg/kg/injection, schedule: Q01DX001 (oral), vehicle: saline",144 % of control
same,T/C,"dose: 64.0 mg/kg/injection, schedule: Q01DX005 (ip), vehicle: saline",147 % of control
same,T/C,"dose: 64.0 mg/kg/injection, schedule: Q01DX009 (sc), vehicle: saline",145 % of control
same,T/C,"dose: 76.0 mg/kg/injection, schedule: Q01DX009 (ip), vehicle: water",140 % of control
same,T/C,"dose: 80.0 mg/kg/injection, schedule: Q01DX001 (ip), vehicle: saline",141 % of control
same,T/C,"dose: 80.0 mg/kg/injection, schedule: Q01DX001 (oral), vehicle: saline",144 % of control
same,T/C,"dose: 80.0 mg/kg/injection, schedule: Q01DX001 (sc), vehicle: saline",145 % of control
same,T/C,"dose: 80.0 mg/kg/injection, schedule: Q08DX002 (ip), vehicle: saline",134 % of control
same,T/C,"dose: 116.0 mg/kg/injection, schedule: Q01DX009 (ip), vehicle: water",126 % of control
same,T/C,"dose: 116.0 mg/kg/injection, schedule: Q04DX003 (ip), vehicle: water",140 % of control
same,T/C,"dose: 120.0 mg/kg/injection, schedule: Q01DX001 (oral), vehicle: saline",148 % of control
same,T/C,"dose: 128.0 mg/kg/injection, schedule: Q01DX005 (ip), vehicle: saline",126 % of control
same,T/C,"dose: 128.0 mg/kg/injection, schedule: Q01DX009 (ip), vehicle: saline",126 % of control
same,T/C,"dose: 150.0 mg/kg/injection, schedule: Q04DX003 (ip), vehicle: clinical formulation",127 % of control
same,T/C,"dose: 160.0 mg/kg/injection, schedule: Q01DX001 (ip), vehicle: saline",146 and 147 % of control
same,T/C,"dose: 160.0 mg/kg/injection, schedule: Q01DX001 (oral), vehicle: saline",144 % of control
same,T/C,"dose: 160.0 mg/kg/injection, schedule: Q01DX001 (sc), vehicle: saline",138 % of control
same,T/C,"dose: 160.0 mg/kg/injection, schedule: Q04DX003 (ip), vehicle: suspension in saline",136 % of control
same,T/C,"dose: 160.0 mg/kg/injection, schedule: Q04DX003 (iv), vehicle: suspension in saline",137 % of control
same,T/C,"dose: 176.0 mg/kg/injection, schedule: Q01DX009 (ip), vehicle: water",137 and 147 % of control
same,T/C,"dose: 176.0 mg/kg/injection, schedule: Q04DX003 (ip), vehicle: water",140 % of control
same,T/C,"dose: 266.0 mg/kg/injection, schedule: Q04DX003 (ip), vehicle: water",145 % of control
same,T/C,"dose: 300.0 mg/kg/injection, schedule: Q04DX003 (ip), vehicle: clinical formulation",136 % of control
same,T/C,"dose: 320.0 mg/kg/injection, schedule: Q01DX001 (ip), vehicle: saline",137 and 142 % of control
same,T/C,"dose: 320.0 mg/kg/injection, schedule: Q01DX001 (sc), vehicle: saline",145 % of control
same,survivor count,"dose: 320.0 mg/kg/injection, schedule: Q04DX003 (iv), vehicle: suspension in saline",5 of 6
same,survivor count,"dose: 400.0 mg/kg/injection, schedule: Q01DX005 (ip), vehicle: water",6 of 6
same,T/C,"dose: 400.0 mg/kg/injection, schedule: Q01DX009 (ip), vehicle: water",140 % of control
same,T/C,"dose: 400.0 mg/kg/injection, schedule: Q04DX003 (ip), vehicle: water",133 and 143 % of control
same,T/C,"dose: 480.0 mg/kg/injection, schedule: Q01DX001 (oral), vehicle: saline",135 % of control [9 of 10 alive]
same,T/C,"dose: 600.0 mg/kg/injection, schedule: Q04DX003 (ip), vehicle: water",147 % of control
same,T/C,"dose: 640.0 mg/kg/injection, schedule: Q01DX001 (oral), vehicle: saline",138 % of control
same,T/C,"dose: 960.0 mg/kg/injection, schedule: Q01DX001 (oral), vehicle: saline",147 % of control
